Measurements taken from the supplement of paper PMC5393889.
The other results are listed elsewhere or left out.

test system: Caenorhabditis elegans N2; test: aldicarb interaction hit call (worm growth perturbed in combination with 10 uM aldicarb in both replicates, no effect as single agent) (binary (1 = interacts)); higher = interacts with aldicarb (growth perturbed); details: first compound 1.5 µM; aldicarb concentration 10 µM; 6 days; 20 °C

| Compound | aldicarb interaction hit call |
| --- | --- |
| Cc1cc(C)cc(N(CC(=O)NC2CC3CCC2C3)S(C)(=O)=O)c1 (stereo not given) [wact-466] + CNC(=O)O/N=C/C(C)(C)SC [aldicarb] | inactive: 0 |
| CSc1ncc(CN2CCCC(CCC(=O)Nc3ccc(C(F)(F)F)cc3)C2)cn1 (stereo not given) [wact-286] + CNC(=O)O/N=C/C(C)(C)SC [aldicarb] | inactive: 0 |
| N/C(=N\OC(=O)c1ccco1)c1ccccc1 [wact-404] + CNC(=O)O/N=C/C(C)(C)SC [aldicarb] | inactive: 0 |
| Cc1ccccc1Nc1nc(-c2ccncc2)cs1 [wact-547] + CNC(=O)O/N=C/C(C)(C)SC [aldicarb] | inactive: 0 |
| CCc1ccc(C(=O)Nc2ccc(N3CCN(C)CC3)c(Cl)c2)cc1 [wact-150] + CNC(=O)O/N=C/C(C)(C)SC [aldicarb] | inactive: 0 |
| O=C(c1cccc(Br)c1)N1CCN(c2ccnc3cc(Cl)ccc23)CC1 [wact-116] + CNC(=O)O/N=C/C(C)(C)SC [aldicarb] | inactive: 0 |
| S=C(NCc1ccc(Cl)cc1)Nc1ccc(Cl)cc1 [wact-368] + CNC(=O)O/N=C/C(C)(C)SC [aldicarb] | inactive: 0 |
| CCC1CCC(N2CCN(c3ccc([N+](=O)[O-])cc3)CC2)CC1 (stereo not given) [wact-6] + CNC(=O)O/N=C/C(C)(C)SC [aldicarb] | inactive: 0 |
| CSc1ccccc1C(=O)NCCCc1ccccc1 [wact-568] + CNC(=O)O/N=C/C(C)(C)SC [aldicarb] | inactive: 0 |
| c1ccc(-c2nc3c(c(N4CCN(Cc5ccoc5)CC4)n2)CCC3)cc1 [wact-335] + CNC(=O)O/N=C/C(C)(C)SC [aldicarb] | inactive: 0 |
